PubChem BioAssay AID504764 – Drosophila RNAi Screening Center | 2011

Test: 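Knock-downs that raise or lower a Notch target reporter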 (primary screen)
Cell system: Drosophila Kc167 cells
Reagent: long dsRNA against Drosophila genes
Time to read-out: about 5 days (4 days dsRNA, then 24 h after transfection)
Treatment: transfection of constitutively active membrane-tethered Notch lacking the extracellular domain, read 24 h later
Read-out: 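Firefly luciferase from an E(spl)m3 reporter with active Notch, plus control-promoter and uninduced reporter wells for normalisation; unnormalised counts, duplicate wells a and b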
Direction: induced reporter light, run 1, well a and induced reporter light, run 1, well b: higher = more light from the Notch target reporter with active Notch; control promoter light, run 1, well a and control promoter light, run 1, well b: higher = more light from the viral control promoter (cell number, transfection, viability); uninduced reporter light, run 1, well a: higher = more light from the Notch target reporter without active Notch
Rule for the call: 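Hit if the duplicate-averaged log2 ratio of induced to control-promoter light gives a plate-wise z beyond ±2, or induced to uninduced beyond ±1.8; weak-control or discordant-duplicate wells dropped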
Calls: active = modifier hit (raised or lowered Notch signal); inactive = not a hit
The screen tested about 22,000 reagents; below is a random part of those with a known target gene and a result. In the full data, 403 (1.9%) were called active. 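Unnormalised raw counts per well; ratio z-scores behind the hit calls and whether each hit raises or lowers signal are not deposited.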 The numbers tell different reagents against one gene apart. A plus sign joins genes that one reagent is predicted to hit. The record does not give: the amount of reagent.

| gene | reagent | induced reporter light, run 1, well a | induced reporter light, run 1, well b | control promoter light, run 1, well a | control promoter light, run 1, well b | uninduced reporter light, run 1, well a | call |
| --- | --- | --- | --- | --- | --- | --- | --- |
| P5CS | 1 | 1.14e5 | 1.17e5 | 72670 | 85835 | 8300 | inactive |
| P5CS | 2 | 1.40e5 | 1.39e5 | 1.28e5 | 1.32e5 | 8805 | inactive |
| agt | 1 | 95170 | 1.11e5 | 93530 | 69360 | 7435 | inactive |
| CG11300 | 1 | 1.37e5 | 1.34e5 | 1.40e5 | 1.28e5 | 7785 | inactive |
| CG7985 | 1 | 1.96e5 | 2.06e5 | 2.59e5 | 2.71e5 | 16138 | inactive |
| Pkc98E | 1 | 2.33e5 | 1.95e5 | 3.23e5 | 3.27e5 | 16675 | inactive |
| CG15210 | 1 | 1.06e5 | 84590 | 1.13e5 | 1.05e5 | 7940 | inactive |
| Cth | 1 | 89600 | 93340 | 1.88e5 | 2.26e5 | 8795 | inactive |
| CG7560 | 1 | 98400 | 82190 | 1.03e5 | 1.07e5 | 6130 | inactive |
| mRpS5 | 1 | – | – | – | – | – | inactive |
| CG13640 | 1 | 1.27e5 | 1.29e5 | 1.61e5 | 1.50e5 | 9520 | inactive |
| CG34296 | 1 | 1.64e5 | 1.79e5 | 1.56e5 | 1.67e5 | 12375 | inactive |
| Liprin-gamma | 1 | 1.45e5 | 1.66e5 | 2.93e5 | 2.63e5 | 12415 | inactive |
| Ag5r | 1 | 2.33e5 | 2.41e5 | 3.07e5 | 2.84e5 | 16015 | inactive |
| Mob3 | 1 | 1.05e5 | 1.45e5 | 81995 | 97830 | 16470 | inactive |
| brv2 | 1 | 1.72e5 | 2.04e5 | 2.63e5 | 1.85e5 | 7565 | inactive |
| SAK | 1 | 55045 | 44485 | 56045 | 46925 | 3000 | inactive |
| CG4928 | 1 | 1.23e5 | 1.40e5 | 98365 | 56490 | 9360 | inactive |
| CG18808 | 1 | 1.52e5 | 1.59e5 | 1.79e5 | 1.79e5 | 15715 | inactive |
| CG18190 | 1 | 1.65e5 | 1.24e5 | 1.45e5 | 1.60e5 | 10265 | inactive |
| Mal-B2 | 1 | 1.63e5 | 1.85e5 | 2.47e5 | 2.37e5 | 12675 | inactive |

Targets above whose gene name starts with P or p (3):
| gene | reagent | induced reporter light, run 1, well a | induced reporter light, run 1, well b | control promoter light, run 1, well a | control promoter light, run 1, well b | uninduced reporter light, run 1, well a | call |
| --- | --- | --- | --- | --- | --- | --- | --- |
| P5CS | 1 | 1.14e5 | 1.17e5 | 72670 | 85835 | 8300 | inactive |
| P5CS | 2 | 1.40e5 | 1.39e5 | 1.28e5 | 1.32e5 | 8805 | inactive |
| Pkc98E | 1 | 2.33e5 | 1.95e5 | 3.23e5 | 3.27e5 | 16675 | inactive |

The results go on.
| gene | reagent | induced reporter light, run 1, well a | induced reporter light, run 1, well b | control promoter light, run 1, well a | control promoter light, run 1, well b | uninduced reporter light, run 1, well a | call |
| --- | --- | --- | --- | --- | --- | --- | --- |
| Ggt-1 | 1 | 93260 | 1.04e5 | 94925 | 57205 | 8560 | inactive |
| CG32551 | 1 | 1.02e5 | 95190 | 1.14e5 | 1.08e5 | 8260 | inactive |
| CG18754 | 1 | 1.84e5 | 1.94e5 | 2.06e5 | 2.08e5 | 15585 | inactive |
| CG31709 | 1 | 1.42e5 | 1.12e5 | 1.79e5 | 1.25e5 | 12520 | inactive |
| CG6908 | 1 | 78405 | 77645 | 77310 | 65345 | 5405 | inactive |
| zuc | 1 | 1.93e5 | 2.51e5 | 1.77e5 | 1.84e5 | 15615 | inactive |
| Pen | 1 | 1.35e5 | 1.76e5 | 1.07e5 | 1.19e5 | 19090 | active |
| CG6961 + CG18259 | 1 | 54335 | 75300 | 54855 | 80990 | 8520 | inactive |
| CG6961 + CG18259 | 2 | 1.18e5 | 1.07e5 | 87685 | 45805 | 9185 | inactive |
| B-H1 | 1 | 1.77e5 | 1.63e5 | 1.81e5 | 2.07e5 | 20580 | inactive |
| B-H1 | 2 | – | – | – | – | – | inactive |
| tous | 1 | 1.95e5 | 2.27e5 | 1.66e5 | 1.40e5 | 13400 | inactive |
| Tpl94D | 1 | 1.01e5 | 75725 | 1.18e5 | 89115 | 11720 | inactive |
| Teh4 | 1 | 1.22e5 | 1.31e5 | 2.44e5 | 1.75e5 | 8470 | inactive |
| Pgant4 | 1 | 1.28e5 | 1.27e5 | 1.45e5 | 1.21e5 | 8355 | inactive |
| CG14795 | 1 | 1.10e5 | 1.00e5 | 1.57e5 | 1.74e5 | 8045 | inactive |
| CG11369 | 1 | 1.24e5 | 1.33e5 | 1.85e5 | 2.03e5 | 9665 | inactive |
| opm | 1 | 1.05e5 | 90315 | 1.30e5 | 1.15e5 | 5505 | inactive |
| Ir51b | 1 | 2.22e5 | 1.90e5 | 2.34e5 | 2.78e5 | 16245 | inactive |
| GCC88 | 1 | 66760 | 1.03e5 | 72760 | 60680 | 3540 | inactive |
| CG2680 | 1 | 1.18e5 | 1.38e5 | 2.25e5 | 2.67e5 | 9120 | inactive |
| Capr | 1 | 1.66e5 | 1.64e5 | 1.99e5 | 1.88e5 | 9165 | inactive |
| Prosalpha3T | 1 | 1.21e5 | 1.11e5 | 1.66e5 | 1.58e5 | 8670 | inactive |
| slbo | 1 | 2.01e5 | 1.48e5 | 1.62e5 | 1.70e5 | 11655 | inactive |
| CycG | 1 | 1.47e5 | 1.10e5 | 1.86e5 | 1.73e5 | 10060 | inactive |
| Indy-2 + CG33934 | 1 | 63905 | 54070 | 52935 | 58265 | 5770 | inactive |
| Indy-2 + CG33934 | 2 | 1.98e5 | 1.69e5 | 1.91e5 | 1.91e5 | 16875 | inactive |
| zfh2 | 1 | 1.29e5 | 1.46e5 | 2.58e5 | 2.19e5 | 12055 | inactive |
| RecQ5 | 1 | 1.61e5 | 1.65e5 | 90475 | 95715 | 12475 | inactive |
